Results from publication PMC4701713, “DNA Entry into and Exit out of the Cohesin Ring by an Interlocking Gate Mechanism” (Cell, 2015).
No constants are given. Whether binding was seen depends on the method and setting. Some binding calls cover weakened binding; strength is not graded here.

The chains behind the UniProt entries cited, without tags or fusion partners. Where a name states a change or a piece, a line headed by the entry shows the natural chain unless it says otherwise.
UniProt O94383: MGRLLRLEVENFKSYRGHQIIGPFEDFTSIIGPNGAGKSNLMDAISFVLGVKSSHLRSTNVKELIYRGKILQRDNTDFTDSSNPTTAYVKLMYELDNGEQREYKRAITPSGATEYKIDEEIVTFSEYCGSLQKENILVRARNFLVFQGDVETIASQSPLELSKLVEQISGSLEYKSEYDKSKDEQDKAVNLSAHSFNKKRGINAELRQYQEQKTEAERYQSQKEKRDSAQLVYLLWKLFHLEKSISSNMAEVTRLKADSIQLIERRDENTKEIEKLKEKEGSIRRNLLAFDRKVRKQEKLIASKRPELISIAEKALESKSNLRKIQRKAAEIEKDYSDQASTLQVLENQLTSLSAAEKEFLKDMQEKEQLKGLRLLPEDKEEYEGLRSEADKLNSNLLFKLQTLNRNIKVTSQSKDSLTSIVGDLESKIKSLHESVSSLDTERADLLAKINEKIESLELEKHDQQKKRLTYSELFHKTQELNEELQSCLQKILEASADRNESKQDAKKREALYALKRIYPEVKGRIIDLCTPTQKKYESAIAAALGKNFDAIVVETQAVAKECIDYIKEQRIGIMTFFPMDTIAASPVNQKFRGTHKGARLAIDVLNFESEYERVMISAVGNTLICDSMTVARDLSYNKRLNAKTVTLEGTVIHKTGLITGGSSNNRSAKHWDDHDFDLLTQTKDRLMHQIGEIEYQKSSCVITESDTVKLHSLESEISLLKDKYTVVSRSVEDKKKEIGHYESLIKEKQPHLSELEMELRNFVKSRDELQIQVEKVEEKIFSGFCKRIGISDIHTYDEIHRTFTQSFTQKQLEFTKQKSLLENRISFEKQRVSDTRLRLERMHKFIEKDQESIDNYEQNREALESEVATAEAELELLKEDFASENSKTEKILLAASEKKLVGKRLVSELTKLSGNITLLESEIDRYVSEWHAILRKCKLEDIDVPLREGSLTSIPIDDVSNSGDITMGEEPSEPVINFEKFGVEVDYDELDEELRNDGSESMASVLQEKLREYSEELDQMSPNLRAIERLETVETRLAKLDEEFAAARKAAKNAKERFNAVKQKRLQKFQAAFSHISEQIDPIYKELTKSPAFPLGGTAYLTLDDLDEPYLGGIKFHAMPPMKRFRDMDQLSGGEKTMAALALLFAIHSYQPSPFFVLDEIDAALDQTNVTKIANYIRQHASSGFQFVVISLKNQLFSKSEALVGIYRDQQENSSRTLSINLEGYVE
UniProt O42649: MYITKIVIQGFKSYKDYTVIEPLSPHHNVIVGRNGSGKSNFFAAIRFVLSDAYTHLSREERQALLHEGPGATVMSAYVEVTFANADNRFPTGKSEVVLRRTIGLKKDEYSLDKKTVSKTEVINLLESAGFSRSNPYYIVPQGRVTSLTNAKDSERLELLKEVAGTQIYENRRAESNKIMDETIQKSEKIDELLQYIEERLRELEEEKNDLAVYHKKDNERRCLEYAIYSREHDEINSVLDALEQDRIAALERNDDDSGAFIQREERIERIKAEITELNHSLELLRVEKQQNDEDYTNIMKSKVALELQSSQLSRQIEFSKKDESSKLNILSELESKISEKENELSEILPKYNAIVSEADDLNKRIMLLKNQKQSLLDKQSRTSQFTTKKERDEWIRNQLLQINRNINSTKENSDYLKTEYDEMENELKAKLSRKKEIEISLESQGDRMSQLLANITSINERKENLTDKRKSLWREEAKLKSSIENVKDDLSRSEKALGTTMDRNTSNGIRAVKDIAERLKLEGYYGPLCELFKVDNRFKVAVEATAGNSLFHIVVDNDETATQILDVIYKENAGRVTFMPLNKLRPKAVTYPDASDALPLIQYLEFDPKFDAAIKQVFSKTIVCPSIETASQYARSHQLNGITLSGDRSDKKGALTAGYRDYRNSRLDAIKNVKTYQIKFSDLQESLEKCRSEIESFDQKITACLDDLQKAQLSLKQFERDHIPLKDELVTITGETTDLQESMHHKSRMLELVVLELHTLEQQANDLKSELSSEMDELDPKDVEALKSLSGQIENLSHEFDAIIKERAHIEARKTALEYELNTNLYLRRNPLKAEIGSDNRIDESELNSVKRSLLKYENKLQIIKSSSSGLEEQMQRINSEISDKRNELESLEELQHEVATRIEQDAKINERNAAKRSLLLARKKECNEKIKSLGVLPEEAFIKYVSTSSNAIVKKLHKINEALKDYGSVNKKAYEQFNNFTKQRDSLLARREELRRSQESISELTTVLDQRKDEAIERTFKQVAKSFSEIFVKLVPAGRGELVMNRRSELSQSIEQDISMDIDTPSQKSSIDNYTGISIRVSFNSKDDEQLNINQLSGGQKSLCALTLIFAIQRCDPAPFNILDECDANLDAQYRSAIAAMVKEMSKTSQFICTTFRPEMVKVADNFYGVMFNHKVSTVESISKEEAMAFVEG
UniProt P30776: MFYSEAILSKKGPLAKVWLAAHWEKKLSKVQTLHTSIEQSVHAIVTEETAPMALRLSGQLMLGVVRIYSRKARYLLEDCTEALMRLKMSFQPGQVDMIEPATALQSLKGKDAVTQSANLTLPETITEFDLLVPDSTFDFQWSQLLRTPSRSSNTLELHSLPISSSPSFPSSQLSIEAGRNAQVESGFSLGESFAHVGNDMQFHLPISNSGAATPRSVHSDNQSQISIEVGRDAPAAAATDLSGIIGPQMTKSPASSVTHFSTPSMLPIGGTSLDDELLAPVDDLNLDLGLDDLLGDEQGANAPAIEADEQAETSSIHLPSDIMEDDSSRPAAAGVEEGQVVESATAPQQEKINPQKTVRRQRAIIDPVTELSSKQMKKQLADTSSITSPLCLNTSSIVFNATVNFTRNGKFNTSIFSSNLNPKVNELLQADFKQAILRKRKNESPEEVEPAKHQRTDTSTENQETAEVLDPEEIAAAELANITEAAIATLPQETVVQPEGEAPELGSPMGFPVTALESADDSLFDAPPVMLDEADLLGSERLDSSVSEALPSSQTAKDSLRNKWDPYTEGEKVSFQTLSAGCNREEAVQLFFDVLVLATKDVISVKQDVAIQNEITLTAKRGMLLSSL
UniProt O13816: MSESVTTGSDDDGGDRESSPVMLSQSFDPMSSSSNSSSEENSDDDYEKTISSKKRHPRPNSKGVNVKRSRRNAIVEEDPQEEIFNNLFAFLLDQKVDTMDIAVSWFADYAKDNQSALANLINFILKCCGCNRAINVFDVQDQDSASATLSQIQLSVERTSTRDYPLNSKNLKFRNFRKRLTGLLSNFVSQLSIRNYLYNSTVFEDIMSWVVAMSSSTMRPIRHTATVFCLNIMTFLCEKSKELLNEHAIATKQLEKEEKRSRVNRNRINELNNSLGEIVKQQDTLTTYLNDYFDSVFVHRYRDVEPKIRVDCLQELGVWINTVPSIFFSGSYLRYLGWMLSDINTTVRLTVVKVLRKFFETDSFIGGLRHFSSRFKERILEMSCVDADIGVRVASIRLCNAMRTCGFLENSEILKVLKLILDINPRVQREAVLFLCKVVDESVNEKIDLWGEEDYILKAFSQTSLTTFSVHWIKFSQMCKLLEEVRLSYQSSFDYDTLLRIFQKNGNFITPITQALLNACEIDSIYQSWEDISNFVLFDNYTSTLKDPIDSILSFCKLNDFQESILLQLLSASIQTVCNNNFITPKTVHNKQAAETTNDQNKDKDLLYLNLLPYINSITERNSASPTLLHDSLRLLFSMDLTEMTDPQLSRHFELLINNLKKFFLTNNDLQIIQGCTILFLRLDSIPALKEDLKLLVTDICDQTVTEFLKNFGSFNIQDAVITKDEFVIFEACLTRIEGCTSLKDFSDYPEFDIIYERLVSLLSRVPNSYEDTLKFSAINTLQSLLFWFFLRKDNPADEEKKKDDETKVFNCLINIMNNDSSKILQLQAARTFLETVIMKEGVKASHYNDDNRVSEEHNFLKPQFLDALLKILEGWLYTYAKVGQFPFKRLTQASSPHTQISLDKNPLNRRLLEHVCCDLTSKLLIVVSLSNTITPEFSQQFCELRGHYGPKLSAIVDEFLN

Biological target: Fission-yeast cohesin tetramer (Psm1, Psm3, Rad21 and Psc3) (fission yeast) (UniProt O94383+O42649+P30776+O13816)
Test: co-IP; recombinant cohesin tetramer immunoprecipitated via Rad21-HA with Pds5 alone or Wapl alone added; bound proteins by western blotting; both purified

binding: binds weakly
B1: Fission-yeast Pds5 (natural protein, fission yeast, UniProt Q9HFF5 1-1205, looked up)
chain: MIKLQFQRNIVPTHDNPLTTSEILKRLRDLLGELTSLSQDTIDRDSVLPVARSLVNNNLLHHKDKGIRSYTLCCIVELLRLCAPDAPFTLSQLEDIFQVILKILSGLMNQESTYYPQIYEILESLSNVKSAVLIVDLPNAEEFLVNIFRLFFDLARKGTTKNVEFYMLDIINQLINEINTIPAAALNILFAQLISGKGVRQTIGSSDSTNHGPAFQLARNIFHDSADRLQRYVCQYFSDIIFDSRDSLSDSMTTPEFIFSHNLVLQLWKYAPTTLLNIIPQFENELQAEQTSVRLVAIETVGLMLQDNAIWSDYPRVWSAFCGRLNDKSVACRIKCIEVASNALQNSLATSEIIENVVQMLQSKLADTDEKVRVATLKTIEQLTFETFKMQFSVQALKLMGDRLRDRKLNVRLQAIRTLSQIYNRAYQDLIDGVEYSIQMFSWIPSSLLEVFYVNDETTNAAVEICMAELVLQYLSSDTQTRLNRLFLSIKYFSEKAMRVFILLLQRQVKYSELLNYYIECCKNYNGGVMDNDEESITNKLKKVIDIISSKSSNPTLTEATFRKFAELNDRQSYKMLLQTFSIKSEYQVVLKSIKYLFKRVSETLSTASLECFRIFVYRSALFAFNKSNVHEIIQLLNEPVKYHNFLKPSEALLQHLPLIHPNIYGEVVIEVENIIVSSGIESDPKVIKALSQFSKRKKNFSIQTTTAEILRKLCLHGTQEQAKQAATIIAITETKEFKLDMITNIVENLEYNGGLPVRLMTLGQLFLYTLEEVEKVADQVTEFLVKKVIQRFPEKYDDTHNDEEWCTYEKLDNLTMCKVLAIRVLVNRLRAAAGGTEALNIGAPIIKLLKVLLMADGELSPFKNTPKISRAYLRLTASKYFLKLCSIPFYAEHIDFSSYVQISLLCQDENFDVRNLFLTKLQKQLQLKKLPISYYPLLFLTAVDPEEEIKTKASIWIRSQVAFFQKTHDFTMEYVATYLIHLLSHHPDISSIESENSLDFIAYIRFYVDTVVNSENVPIVFHLMQRIKQSYDVIEDGNNYIYVLSDMAQKILQVKSQNFGWSLTTYPKQIKLPYEILRPIPSIDEKKRIFNKIFITPKMESQIEHAIRTPVSSFAKQTTNKHANLKQKKTHSSKSDKKSSRRRKNEKRRKLNEQNPNIRNVPERSSSRFQGIRINYSEAPSSSEEISEEEEEISEEDFDEIEDL
notes: Pds5, cohesin subunit of fission yeast; Protein A was removed by protease; source: overexpressed in budding yeast, purified (IgG-agarose, Capto Q, gel filtration)
